The other results are listed elsewhere or left out. These are further read-outs of the screen, such as a control signal, another cell line or another target. No call is given for them. Most of these compounds were active or inconclusive in the main read-out, so they are no random draw. The note in brackets gives the kind of curve behind each potency; many fits are weak.
Assay: qHTS Assay to Find Inhibitors of Chronic Active B-Cell Receptor Signaling
Details: ABC-DLBCL IkBa-CBG/CBR reporter, luminescence ratio (green luciferase fused to IkBa over red control in TMD8 lymphoma cells), 4 h
In short: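 Doxycycline induced both beetle luciferases in TMD8 lymphoma cells; IKK-driven degradation limits the IkappaBalpha-fused green signal, while red luminescence normalises for cell number and nonspecific effects. Compounds tested up to 46 uM, 4 hrs.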

[1] = measured here: CBR red luminescence, cell number
[2] = measured here: IkBa-CBG green luminescence

With `CC(C)Oc1ccc(C(=O)Nc2ccc(Cl)c(S(=O)(=O)Nc3ccc(Cl)cc3)c2)cc1` as the compound, how does the AC50 [1] read?
The AC50 was 29.1 µM [falling, single point].

Which AC50 [1] does the source give for `COc1ccc(CNC(=O)C/C(C)=N/NC(=O)C23CC4CC(CC(C4)C2)C3)cc1` here?
Its AC50 is 4.47 µM [rising, single point].

With `COc1ccc(CCNC(=O)COC(=O)c2cc3ccccc3oc2=O)cc1OC` as the compound, how does the AC50 [1] read?
Its AC50 is 1.3 µM [rising, partial curve, poor fit].

What does the source list for `O=c1oc2ccccc2c(Nc2ccc(Cl)cc2)c1[N+](=O)[O-]`?
AC50 [1]: 20 µM [falling, single point]; AC50 [2]: 15.8 µM [rising, partial curve, poor fit]

For `COc1cc([C@@H]2c3cc4c(cc3[C@@H](NC3CCN(Cc5ccccc5)CC3)[C@H]3COC(=O)[C@H]23)OCO4)cc(OC)c1O`, which AC50 [1] is on record?
The AC50 was 25.1 µM [rising, single point].

Which AC50 [1] does the source give for `Nc1ccccc1SC1CC(=O)N(c2ccccc2Cl)C1=O` (stereo unspecified) here?
Its AC50 is 2 µM [rising, partial curve, poor fit].

For `Cc1ccc(F)cc1NC(=O)N1CCN(C2c3ccccc3-c3ccccc32)CC1`, which AC50 [1] is on record?
The AC50 was 10 µM [falling, partial curve].

With `Cc1cccc(CS(=O)(=O)c2ncc(Cl)c(C(=O)NCc3ccccc3)n2)c1` as the compound, how does the AC50 [1] read?
Its AC50 is 11.2 µM [falling, partial curve, poor fit].

With `COC(=O)CNC(=O)Cc1c(C)n(C(=O)c2ccc(Cl)cc2)c2ccc(OC)cc12` as the compound, how does the AC50 [1] read?
Its AC50 is 35.5 µM [falling, single point].

With `COc1cccc(CN(C)CC(=O)Nc2sc3c(c2C#N)CCC3)c1OC` as the compound, how does the AC50 [1] read?
Its AC50 is 5.62 µM [rising, single point].

For `Nc1cc(=O)[nH]c(SCC(=O)Nc2ccc(F)c(Cl)c2)n1`, which AC50 [1] is on record?
The AC50 was 5.17 µM [falling, single point].

With `O=C(Nc1ccccc1)C1=C(N2CCOCC2)/C(=C/c2cccnc2)CC1` as the compound, how does the AC50 [1] read?
Its AC50 is 32.6 µM [falling, single point].

With `CC1=NC(=O)C(N=Nc2ccccc2C(=O)O)N1c1ccccc1` (stereo unspecified) as the compound, how does the AC50 [1] read?
The AC50 was 14.1 µM [falling, partial curve].

Which AC50 [1] does the source give for `O=C(Oc1ccccc1)c1ccccc1OS(=O)(=O)c1ccccc1` here?
Its AC50 is 29.1 µM [rising, single point].

With `O=c1[nH]c(CN2CCCCC2)nc2ccccc12` as the compound, how does the AC50 [1] read?
The AC50 was 10 µM [falling, partial curve, poor fit].

Which AC50 [1] does the source give for `CCn1cc(CN2CCCC(C(=O)Nc3ccc(-c4cscn4)cc3)C2)cn1` (stereo unspecified) here?
The AC50 was 14.1 µM [falling, single point].

For `COC(=O)c1c(C)nc(C)c(C(=O)OC)c1-c1ccc(OC)cc1`, which AC50 [1] is on record?
Its AC50 is 14.1 µM [falling, partial curve, poor fit].

Which AC50 [1] does the source give for `CC(=O)Nc1ccc(S(=O)(=O)NNC(=O)c2cc3c4ccccc4n(C)c3s2)cc1` here?
The AC50 was 15.8 µM [falling, partial curve, poor fit].

Which results are given for `CCc1cc2c(CN3CCN(CCO)CC3)cc(=O)oc2cc1O`?
AC50 [1]: 29.1 µM [falling, single point]; AC50 [2]: 18.4 µM [rising, partial curve, poor fit]

For `CCOC(=O)/C(=C\c1ccc(OC)c(OC)c1)C(=O)c1cccnc1`, which AC50 [1] is on record?
Its AC50 is 5.01 µM [falling, partial curve, poor fit].

For `CCOC(=O)C1CCN(C(=O)c2cc3c(OC)c(OC)c(OC)cc3[nH]2)CC1`, which AC50 [1] is on record?
The AC50 was 25.1 µM [falling, single point].

For `CCN1C(Nc2ccccc2)=NC[C@@H]1Cc1ccccc1`, which AC50 [1] is on record?
The AC50 was 2.51 µM [falling, full curve].

Which AC50 [1] does the source give for `COc1cccc(-c2nc(CS(=O)CC(=O)NCCc3ccccc3)c(C)o2)c1` (stereo unspecified) here?
The AC50 was 1.26 µM [rising, partial curve, poor fit].

Which AC50 [1] does the source give for `COC(=O)c1ccccc1NC(=O)CSc1nccn1C` here?
The AC50 was 25.1 µM [falling, single point].

Which results are given for `CCOC(=O)C1=C(O)/C(=C/c2ccc(OCC(=O)O)c(OCC)c2)SC1=Nc1ccccc1`?
AC50 [1]: 0.891 µM [rising, partial curve]; AC50 [2]: 3.16 µM [falling, partial curve, poor fit]

With `O=C(C1=NNCC1c1ccc(Cl)cc1)C1CO1` (stereo unspecified) as the compound, how does the AC50 [2] read?
Its AC50 is 29.1 µM [rising, partial curve, poor fit].

For `CCOCCCNS(=O)(=O)c1ccc2c(c1)CCN2C(=O)CC`, which AC50 [1] is on record?
Its AC50 is 3.66 µM [falling, single point].

Which AC50 [1] does the source give for `Cc1nnc(SCC(=O)N2c3ccccc3C(C)(c3ccc(Cl)cc3)CC2(C)C)s1` (stereo unspecified) here?
Its AC50 is 18.4 µM [falling, single point].

For `Cc1cc(C)nc(S/C=C/C(=O)c2ccc(F)cc2)n1`, which AC50 [1] is on record?
Its AC50 is 5.62 µM [rising, partial curve, poor fit].

For `Cc1ccc(NC(=O)c2cc(S(=O)(=O)NCCC3=CCCCC3)ccc2F)cc1`, which AC50 [1] is on record?
Its AC50 is 20.6 µM [falling, single point].

For `CCc1ccc(NC(=O)CN(CC(=O)Nc2ccc(CC)cc2)CC(C)O)cc1` (stereo unspecified), which AC50 [1] is on record?
Its AC50 is 35.5 µM [falling, partial curve, poor fit].

For `COc1cc(NC(=O)Cn2cnc3c(NCc4ccccc4)ncnc32)cc(OC)c1OC`, which AC50 [1] is on record?
Its AC50 is 16.4 µM [rising, single point].

For `COC(=O)[C@@]1(Cc2ccc(OC)cc2)[C@H]2c3cc(C(=O)N(C)C)n(CCSCCO)c3C[C@H]2CN1C(=O)c1ccccc1`, which AC50 [1] is on record?
Its AC50 is 18.4 µM [falling, partial curve, poor fit].

Which AC50 [1] does the source give for `COc1ccccc1NC(=O)CC1Nc2ccccc2NC1=O` (stereo unspecified) here?
The AC50 was 18.4 µM [falling, partial curve].

Which AC50 [1] does the source give for `Cc1cc(C)nc(NC(=O)c2cccs2)n1` here?
Its AC50 is 6.31 µM [falling, partial curve, poor fit].

Which AC50 [1] does the source give for `O=c1cc(NC2CCCCCC2)[nH]c(=O)[nH]1` here?
Its AC50 is 0.116 µM [falling, full curve, poor fit].

Which results are given for `CCOC(=O)c1nnc2c(Br)c(-c3ccccc3)nn2c1C`?
AC50 [1]: 29.1 µM [falling, single point]; AC50 [2]: 13 µM [rising, partial curve, poor fit]

Which AC50 [1] does the source give for `Cc1ccsc1/C=N/Nc1nc2ccccc2s1` here?
Its AC50 is 16.4 µM [falling, partial curve].

With `CC(=O)Oc1ccc(Cl)cc1/C=C/c1cc(OC(C)=O)c2ccccc2n1` as the compound, how does the AC50 [2] read?
The AC50 was 23.1 µM [rising, partial curve, poor fit].

Which AC50 [1] does the source give for `CC1(C)CC(=O)C=C(c2ccc(Cl)c(C(F)(F)F)c2)C1` here?
The AC50 was 32.6 µM [rising, single point].

What does the source list for `CCC(=C/c1sc2ccc3ccccc3c2[n+]1C)/C=C1\Sc2ccc3ccccc3c2N1C`?
AC50 [1]: 10 µM [rising, partial curve]; AC50 [2]: 11.2 µM [falling, partial curve]

Which AC50 [1] does the source give for `O=C(OCC(=O)c1ccc[nH]1)c1ccc(Cl)nc1` here?
Its AC50 is 0.82 µM [rising, full curve, poor fit].

For `Cc1cccc(C(=O)Nc2ccccc2C(=O)NCc2ccco2)c1`, which AC50 [1] is on record?
The AC50 was 22.4 µM [falling, single point].

For `CNC(=O)Nc1cccc(-c2cc(-c3c(Cl)cccc3Cl)no2)c1`, which AC50 [1] is on record?
Its AC50 is 35.5 µM [falling, single point].

For `Cc1cc(OC(C(=O)O)c2ccccc2)c2c(C)c(Cc3ccccc3)c(=O)oc2c1` (stereo unspecified), which AC50 [1] is on record?
Its AC50 is 35.5 µM [falling, single point].

Which AC50 [1] does the source give for `C[N+]12CCCCC1C(COC(=O)c1ccc3c(c1)OCO3)CCC2` (stereo unspecified) here?
The AC50 was 29.1 µM [rising, single point].

With `CC(C)N1C(=O)CCC1C(=O)NCCc1ccccc1` (stereo unspecified) as the compound, how does the AC50 [1] read?
Its AC50 is 22.4 µM [rising, single point].

With `COc1cc([N+](=O)[O-])ccc1NC(=O)CCCOc1ccccc1` as the compound, how does the AC50 [1] read?
Its AC50 is 2.51 µM [rising, full curve, poor fit].

Which AC50 [1] does the source give for `C=CCn1c(N)c(C(=O)NCC2CCCO2)sc1=S` (stereo unspecified) here?
Its AC50 is 2.59 µM [rising, single point].

For `Cc1csc(SCC(=O)NC2CCCC2)n1`, which AC50 [1] is on record?
Its AC50 is 2.31 µM [falling, partial curve].

Which AC50 [1] does the source give for `CC(=O)Oc1cccc(-c2nc3ccccc3c(=O)o2)c1` here?
Its AC50 is 7.94 µM [falling, partial curve, poor fit].

For `Clc1ccc(SCc2cc(-c3ccccc3)no2)cc1`, which AC50 [1] is on record?
The AC50 was 0.562 µM [rising, full curve, poor fit].

With `CC(NC(=O)c1c(O)c2ccccc2n(C)c1=O)c1ccccc1` (stereo unspecified) as the compound, how does the AC50 [1] read?
Its AC50 is 12.6 µM [falling, partial curve, poor fit].

With `CCOc1cc(N2CCOCC2)c(OCC)cc1NC(=O)CSc1ncccc1C(=O)O` as the compound, how does the AC50 [1] read?
Its AC50 is 14.6 µM [rising, partial curve, poor fit].

With `COc1ccccc1NC(=O)COC(=O)CCc1ccc(S(=O)(=O)N2CCOCC2)cc1` as the compound, how does the AC50 [1] read?
Its AC50 is 0.82 µM [falling, full curve, poor fit].

For `CC(C)N(C(=O)[C@H]1C[C@H](CC(=O)NCc2cccc(C(F)(F)F)c2)C(=O)N2CCc3c([nH]c4ccc(Cl)cc34)[C@]12C)C(C)C`, which AC50 [1] is on record?
Its AC50 is 2.31 µM [rising, partial curve, poor fit].

With `CN(C(=O)c1ccccc1C(=O)OCC(=O)Nc1ccccc1)c1ccccc1` as the compound, how does the AC50 [1] read?
The AC50 was 23.1 µM [falling, single point].

Which AC50 [1] does the source give for `Cc1ccc2nc(SCc3ccc([N+](=O)[O-])cc3)[nH]c2c1` here?
Its AC50 is 12.6 µM [falling, single point].

With `O=C(CSc1c2c(nc3cc(Cl)ccc13)CCCC2)NCc1ccco1` as the compound, how does the AC50 [1] read?
Its AC50 is 2.06 µM [falling, partial curve, poor fit].

For `Cc1ccc(C(=O)Nc2nc(=O)n(C(=O)C3CC3)s2)cc1`, which AC50 [1] is on record?
Its AC50 is 11.6 µM [falling, single point].

With `Nc1ccccc1SC1CC(=O)N(c2ccc(Cl)c(Cl)c2)C1=O` (stereo unspecified) as the compound, how does the AC50 [1] read?
The AC50 was 0.447 µM [rising, full curve, poor fit].
